For at least one compound, name, drawing or mass did not settle the structure.
Tested on: GABAA-mediated sIPSCs in control neurons
Assay: Bath application of LQ on corticostriatal slices of wild type mice, sIPSCs
Format: cell-based, mouse
Conditions: bicuculline 10 μM, n=5

CN1CCc2cc3c(cc2[C@H]1[C@@H]1OC(=O)c2c1ccc1c2OCO1)OCO3 [bicuculline, reference compound]
blockade of sIPSCs recorded in the presence of LQ: fully blocked
